Where “and” joins values, the source holds several entries; their conditions need not be identical. Equal entries are not always repeated.
Experiment: Example II: dyeing of white goat hair, then colour change with acidic gel (pH 3) and alkaline cream
Details: for Delta E Colour Change: vs. original dyed colour
Protocol: The dye mixture can be applied to undamaged white goat hair at 50° C. for 15 min. or 30° C. for 30 min. Approximately 1 g of formulation A is used per gram of hair. After the completion of the dyeing time, the tresses may be rinsed with water, shampoo washed and then dried. The colour of the tresses can then be recorded. […] All of the dyes have the formula I, but only dyes within a certain pKa range are capable of reversible colour change of hair in which the hair changes to a second colour by treatment with the acidic formulation defined in Table 2. The dyeing solutions each had the following compositions: [table] The dye solution is applied in a 1:1 weight ratio to untreated white goat hair at 30° C. for 20 min. After this time, the tresses are shampoo rinsed, dried and the colour measured. The tresses were then run through the following protocol: • a. Acidic Gel (see Table 2a below) was applied in a ratio of 1 g per 1 g of hair tress for 1 min. • b. The hair tress was rinsed with water and dried, and the colour and delta E vs. the original dyed colour was then measured. • c. An alkaline cream (see Table 2b below) was applied in a ratio of 1 g per 1 g of the hair tress for 1 min. • d. The hair tress was rinsed and dried, and the colour and delta E vs. the original dyed colour was then measured. [table] [table]

[1] = Acid Solution (acidic gel pH 3, 1 min)
[2] = Alkali Solution (alkaline cream, 1 min) after acid
[3] = Dyed, 0.2% dye, pH 10, 30° C. 20 min

SMILES: N#CC1=NN(c2ccccc2)C(=O)C1/N=N/c1cc(Cl)c(S(N)(=O)=O)cc1Cl (centres unmarked) [Dye 34, reference compound]
- L [1]: 80 and 74
- b [1]: 54 and 68
- Delta E Colour Change [1]: 2
- L [2]: 78 and 75
- b [2]: 56 and 69
- Delta E Colour Change [2]: 1
- L [3]: 79 and 75
- b [3]: 56 and 69

SMILES: CCSc1nnc(/N=N/c2c(C(C)(C)C)nn3nc(C(C)C)[nH]c23)s1 [Dye 35, reference compound]
- L [1]: 78
- a [1]: 11
- b [1]: 73
- Delta E Colour Change [1]: 3
- L [2]: 76
- a [2]: 12
- b [2]: 74
- Delta E Colour Change [2]: 2
- L [3]: 77
- a [3]: 13
- b [3]: 75

SMILES: CCc1nn2c(-c3ccc(OC)c(NS(C)(=O)=O)c3)n[nH]c2c1/N=N/c1nc(C(C)C)no1 [Dye 36, reference compound]
- L [1]: 85
- a [1]: −6
- b [1]: 57
- Delta E Colour Change [1]: 1
- L [2]: 84
- a [2]: −4
- b [2]: 56
- Delta E Colour Change [2]: 2
- L [3]: 85
- a [3]: −5
- b [3]: 57

SMILES: CNS(=O)(=O)c1ccc2nsc(/N=N/c3cc(NC(C)=O)c(O)c(NC(C)=O)c3)c2c1 [Dye 39, reference compound]
- L [1]: 56
- a [1]: −5
- b [1]: −16
- Delta E Colour Change [1]: 3
- L [2]: 58
- a [2]: −5
- b [2]: −15
- Delta E Colour Change [2]: 4
- L [3]: 55
- a [3]: −5
- b [3]: −17
